Assay results as given in patent publication US10071962B2, “Androgen receptor modulators and methods for their use” (British Columbia Cancer Agency Branch, priority 2014, dated 2018).
For at least one compound, name, drawing or mass did not settle the structure.

Target: T1, androgen receptor (AR) (Homo sapiens, UniProt P10275, T878A)
T1 construct: they express endogenous androgen receptor (AR) and secrete prostate-specific antigen (PSA); endogenous in cells; host or cells: LNCaP
T1 sequence (P10275 1-920 T878A): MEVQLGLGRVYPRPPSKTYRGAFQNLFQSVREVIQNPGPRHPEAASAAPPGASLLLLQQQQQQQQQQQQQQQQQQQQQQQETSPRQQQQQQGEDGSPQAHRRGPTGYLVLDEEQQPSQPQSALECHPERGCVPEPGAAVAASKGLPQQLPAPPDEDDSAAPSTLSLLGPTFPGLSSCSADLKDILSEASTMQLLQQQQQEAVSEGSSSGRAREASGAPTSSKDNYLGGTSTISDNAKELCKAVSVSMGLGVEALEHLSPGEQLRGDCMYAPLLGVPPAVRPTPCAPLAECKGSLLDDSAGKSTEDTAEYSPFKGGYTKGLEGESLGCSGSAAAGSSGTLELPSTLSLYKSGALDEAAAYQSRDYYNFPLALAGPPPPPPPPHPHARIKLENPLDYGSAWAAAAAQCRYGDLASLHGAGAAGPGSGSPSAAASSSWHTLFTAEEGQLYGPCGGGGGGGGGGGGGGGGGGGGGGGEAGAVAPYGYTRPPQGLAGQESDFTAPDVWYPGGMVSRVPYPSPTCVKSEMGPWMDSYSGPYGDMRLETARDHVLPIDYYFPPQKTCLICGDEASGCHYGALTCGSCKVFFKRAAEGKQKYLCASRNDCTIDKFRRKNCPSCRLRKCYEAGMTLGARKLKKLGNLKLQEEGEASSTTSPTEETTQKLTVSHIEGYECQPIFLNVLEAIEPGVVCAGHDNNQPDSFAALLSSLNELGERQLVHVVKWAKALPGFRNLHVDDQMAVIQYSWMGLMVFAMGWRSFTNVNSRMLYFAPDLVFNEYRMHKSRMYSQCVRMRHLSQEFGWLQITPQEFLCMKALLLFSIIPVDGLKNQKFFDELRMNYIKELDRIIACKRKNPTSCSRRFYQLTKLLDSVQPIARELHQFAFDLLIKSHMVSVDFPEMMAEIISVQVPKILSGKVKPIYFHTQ
Assay: PSA (6.1 kb)-luciferase reporter assay in LNCaP cells, R1881-induced AR transcriptional activity
Type: cell-based
Conditions: LNCaP cells transfected with PSA (6.1 kb)-luciferase; 1 h pre-treatment, R1881 1 nM, 48 h; various concentrations
Description: R1881 (a synthetic androgen) is employed since it is stable and avoids problems associated with the labile physiological ligand dihydrotestosterone (DHT).
LNCaP (2.4×10^4 cell/well) cells were seeded on 24-well plates overnight before transfection with PSA (6.1 kb)-luciferase plasmid (0.25 ug/well) in serum-free, red phenol-free media. The next day, cells were pre-treated with compounds of the invention for 1 hour before the addition of synthetic androgen, R1881 (1 nM) to transactivate androgen receptor (AR). After 48 h of incubation with R1881, the cells were harvested, and relative luciferase activity was determined as a read-out for androgen receptor (AR) transcriptional activity relative to a control. Test compounds were added to the cells at various concentrations and activity for each treatment was normalized to the predicted maximal activity induction (in the absence of test compounds, vehicle only). Transfection experiments were performed using triplicate wells.

**Q.** `COC1=CC(=O)N(C(=O)[C@@H](CCC(Cl)(Cl)Cl)NC(=O)OC(C)(C)C)[C@@H]1CCC(Cl)(Cl)Cl` [Compound 1-3d] was tested. Which “luciferase activity relative to the control (read-out for AR transcriptional activity)” value did it give?
**A.** decrease in luciferase activity relative to the control

**Q.** How did the “luciferase activity relative to the control (read-out for AR transcriptional activity)” value turn out when `COC1=CC(=O)N(C(=O)[C@@H](CCC(Cl)(Cl)Cl)NC(=O)OC(C)(C)C)[C@H]1CCC(Cl)(Cl)Cl` [Compound 1-3c] was run?
**A.** decrease in luciferase activity relative to the control
